Reference: paper PMC3445502
These are yes or no findings as the source states them, for the method shown.

Target: h9-K5 (human)
Assay: AUC + other: transmission electron microscopy; linear h9-K5 alone; conditions of these two experiments not given; both purified

binding: no binding
Binder: FLIVIGSIIKKKKK [h9-K5]
